Laboratory results taken from article PMC12893965.
No constants are given. Whether binding was seen depends on the method and setting. Binding seen in cells or lysates may run through a third protein. Some binding calls cover weakened binding; strength is not graded here.

Amino acid sequences for entries named in this document (tags omitted). Residues count along the entry.
UniProt Q9QUK6, residues 26-835: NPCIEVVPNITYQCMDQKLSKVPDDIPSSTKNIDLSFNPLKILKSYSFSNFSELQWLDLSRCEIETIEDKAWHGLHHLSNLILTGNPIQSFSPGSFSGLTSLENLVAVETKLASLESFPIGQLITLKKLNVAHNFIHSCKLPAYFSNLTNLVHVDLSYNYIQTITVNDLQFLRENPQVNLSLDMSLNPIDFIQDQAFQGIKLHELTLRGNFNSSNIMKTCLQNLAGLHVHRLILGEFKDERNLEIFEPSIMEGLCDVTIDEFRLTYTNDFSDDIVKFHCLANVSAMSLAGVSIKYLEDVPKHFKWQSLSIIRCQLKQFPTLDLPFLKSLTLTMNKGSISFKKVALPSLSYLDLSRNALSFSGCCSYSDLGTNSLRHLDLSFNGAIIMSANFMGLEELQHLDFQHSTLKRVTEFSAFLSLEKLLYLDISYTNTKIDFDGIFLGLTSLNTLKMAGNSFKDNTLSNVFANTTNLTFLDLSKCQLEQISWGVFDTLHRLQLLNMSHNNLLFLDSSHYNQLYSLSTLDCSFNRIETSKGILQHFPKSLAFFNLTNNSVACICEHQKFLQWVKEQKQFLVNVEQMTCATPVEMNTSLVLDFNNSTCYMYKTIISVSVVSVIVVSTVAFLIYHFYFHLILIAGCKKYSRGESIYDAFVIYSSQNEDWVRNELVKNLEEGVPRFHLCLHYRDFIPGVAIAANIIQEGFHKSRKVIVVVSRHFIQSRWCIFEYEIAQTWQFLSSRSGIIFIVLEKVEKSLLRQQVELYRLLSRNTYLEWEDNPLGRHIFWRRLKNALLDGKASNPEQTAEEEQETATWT

Molecular target: Toll-like receptor 4 (TLR4) (mouse (endogenous in ST36 acupoint tissue of C57BL/6J mice)) (UniProt Q9QUK6)
Test: co-IP; ST36 acupoint tissue lysate (1 mg protein) incubated with 2 ug mouse monoclonal anti-TLR4 antibody or mouse IgG isotype control, 1 hour at room temperature, then Protein A/G magnetic beads at 4°C overnight; washed three times with lysis buffer; WB for TLR4 and MD2

B1: Myeloid differentiation protein 2 (MD2) (protein, UniProt Q9JHF9 19-160)
chain: EKQQWFCNSSDAIISYSYCDHLKFPISISSEPCIRLRGTNGFVHVEFIPRGNLKYLYFNLFISVNSIELPKRKEVLCHGHDDDYSFCRALKGETVNTSIPFSFEGILFPKGHYRCVAEAIAGDTEEKLFCLNFTIIHRRDVN
- binding: binds
